From PubChem BioAssay AID2549 (National Center for Advancing Translational Sciences (NCATS), 2010)
About 1,300 (0.54%) of roughly 240,000 compounds were called active. The inconclusive results got no clear call from the source; some entries with a clear call stand among them for comparison. Calls follow the shape of the dose curve; as a rule, active = well fitted inhibition curve with a large enough effect; inconclusive = small, poorly fitted or top-dose-only effect; inactive = flat fitted curve, though single readings scatter. A potency beside an inconclusive call is a rough fit, not a confirmed value. The source holds several records for some structures; these can differ, active in one and inactive in another.

By UniProt entry, the sequences of proteins in these tests, tags left out. Where a name states a change or a piece, a line headed by the entry shows the natural chain unless it says otherwise.
UniProt P46063: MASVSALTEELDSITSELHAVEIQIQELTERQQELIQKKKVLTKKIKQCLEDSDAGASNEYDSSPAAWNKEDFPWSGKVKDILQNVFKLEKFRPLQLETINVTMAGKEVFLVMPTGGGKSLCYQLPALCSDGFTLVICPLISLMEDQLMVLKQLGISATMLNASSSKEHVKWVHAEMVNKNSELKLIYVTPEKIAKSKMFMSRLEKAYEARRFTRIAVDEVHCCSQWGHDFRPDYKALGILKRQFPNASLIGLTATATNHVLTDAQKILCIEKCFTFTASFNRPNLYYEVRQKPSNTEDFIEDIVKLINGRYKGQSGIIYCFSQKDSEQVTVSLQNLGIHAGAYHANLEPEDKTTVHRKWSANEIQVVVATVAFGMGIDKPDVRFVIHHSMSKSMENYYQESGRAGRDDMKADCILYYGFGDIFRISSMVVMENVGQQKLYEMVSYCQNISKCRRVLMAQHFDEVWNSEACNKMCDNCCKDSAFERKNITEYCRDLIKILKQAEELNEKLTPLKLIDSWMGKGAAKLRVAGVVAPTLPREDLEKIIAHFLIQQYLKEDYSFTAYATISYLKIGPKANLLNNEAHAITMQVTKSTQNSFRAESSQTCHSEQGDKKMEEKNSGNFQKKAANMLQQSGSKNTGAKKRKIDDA

Each molecule was assayed against ATP-dependent DNA helicase Q1 (Homo sapiens) (UniProt P46063) (assay: qHTS Assay for Inhibitors of RecQ-Like Dna Helicase 1 (RECQ1)). Details: RECQ1 DNA unwinding, red fluorescence kinetic read; activity, negative = inhibition: at 57.3 µM (top of the series); series mostly up to 57.3 µM.
In short: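 RECQ1T1 50 nM; forked duplex (20 bp + 30-nt ss tails) 200 nM, ATP 2 mM final; pH 8.0, 2 mM MgCl2, 2.5 ug/ml poly(dI-dC); 15 min compound preincubation; discontinuous kinetic read over 2 h at RT.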
Also: nearly all actives have a fitted effect of over 30% in size.
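For activity, negative = inhibition in this document: plate controls were vehicle for no effect and no enzyme for full effect.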
Potency is read from the fitted curve at half-maximal effect.

Row | Structure (SMILES) | Potency | activity, negative = inhibition | outcome
1 | CCOc1ccc(-n2cc(C(=O)c3cc(Cl)ccc3O)cc(C#N)c2=O)cc1 | inconclusive: 0.251 µM [inhibitor, full curve] |  | 
2 | O=C(CSc1ccc2nnc(-c3ccccn3)n2n1)N1CCN(c2ccccc2)CC1 | active: 39.8 µM |  | 
3 | CN(C)CCCn1cc(C2=C(c3c[nH]c4ccccc34)C(=O)NC2=O)c2ccccc21 | active: 28.2 µM |  | 
4 | COc1ccc(-c2cc(C(=O)O)c3ccccc3n2)c(OC)c1 |  | inactive: -0.456% | 
5 | CCOC(=O)C1CN(S(=O)(=O)c2cccc(C(F)(F)F)c2)c2cc(CC(=O)OC)ccc2O1 (stereo not given) | active: 39.8 µM |  | 
6 | Cc1ccc(-c2nc3c(c(=O)[nH]c(=O)n3Cc3ccccc3)n2C)o1 | active: 14.1 µM |  | 
7 | CCOC(=O)Cc1cc(=O)n2[nH]c(-c3ccc(C)cc3)cc2n1 | inconclusive: 39.8 µM [inhibitor, single point] |  | 
8 | Cc1cccc(C(P(=O)(c2ccccc2)c2ccccc2)P(=O)(c2ccccc2)c2ccccc2)n1 | inconclusive: 0.891 µM [inhibitor, partial curve, poor fit] |  | 
9 | CC(C)(C)S(=O)(=O)c1cnc2c(-c3ccc(F)cc3)cnn2c1N | inconclusive: 5.01 µM [inhibitor, full curve] |  | 
10 | COc1cc(/C=N/NC(=O)C(=O)NCc2cccnc2)ccc1O | inconclusive: 39.8 µM [inhibitor, single point] |  | 
11 | CN(C)S(=O)(=O)c1ccc(NC(=O)Cc2ccc(S(=O)(=O)N3CCOCC3)s2)cc1 | inconclusive: 25.1 µM [inhibitor, single point] |  | 
12 | Cc1csc(N/N=C/c2ccc(O)c([N+](=O)[O-])c2)n1 | active: 14.1 µM |  | 
13 | Oc1cc2c(c(Cl)c1O)CCNCC2c1ccccc1 (stereo not given) | inactive |  | 
14 | O=C1c2ccccc2C(=O)N1Cc1cc(-c2ccccc2Cl)no1 | active: 31.6 µM |  | 
15 | COc1ccc(CNC(=O)/C=C/c2cc3c(cc2Br)OCO3)cc1 | inconclusive: 4.47 µM [inhibitor, partial curve] |  | 
16 | O=C(NC(=O)c1ccc(F)cc1)Nc1nc(-c2cccs2)cc(C(F)(F)F)n1 | inconclusive: 0.1 µM [inhibitor, full curve, poor fit] |  | 
17 | COc1ccc(S(=O)(=O)N2CCSC2c2ccccc2)cc1 (stereo not given) | inconclusive: 25.1 µM [inhibitor, partial curve, poor fit] |  | 
18 | O=C(O)c1ccc(-n2cccc2/C=C2/NC(=O)N(c3cccc(Cl)c3)C2=O)cc1 | active: 22.4 µM |  | 
19 | O=C(O)c1ccccc1N/N=C/C1=C(N2CCOCC2)C(=C\c2ccccc2)/CC1 | inconclusive: 39.8 µM [inhibitor, single point] |  | 
20 | CC1CCCN(C(=O)c2ccncc2)C1 (stereo not given) | inconclusive: 1 µM [inhibitor, full curve] |  | 
21 | COc1ccc(-c2csc(NC(=O)c3ccccc3NS(=O)(=O)c3ccc(C)cc3)n2)cc1 | inconclusive: 39.8 µM [inhibitor, single point] |  | 
22 | COc1cccc([C@@H]2Oc3ccc(OC)cc3C(=O)[C@H]2OC(=O)NCCOc2ccccc2)c1 |  | inactive: 0.753% | 
23 | Cc1cc(=O)c2c(O)c(O)ccc2o1 | active: 35.5 µM |  | 

Individual results from the list:
Potency, CN(C)CCCn1cc(C2=C(c3c[nH]c4ccccc34)C(=O)NC2=O)c2ccccc21 reads active: 28.2 µM
Potency, Oc1cc2c(c(Cl)c1O)CCNCC2c1ccccc1 (stereo not given) reads inactive
Potency, CCOC(=O)C1CN(S(=O)(=O)c2cccc(C(F)(F)F)c2)c2cc(CC(=O)OC)ccc2O1 (stereo not given) reads active: 39.8 µM
Potency, Cc1csc(N/N=C/c2ccc(O)c([N+](=O)[O-])c2)n1 reads active: 14.1 µM

Next structures

Row | Structure (SMILES) | Potency | activity, negative = inhibition | outcome
24 | COc1ccc2c(c1)c1nnc(SCC(=O)N3CCCCC3C)nc1n2C (stereo not given) | inconclusive: 5.01 µM [inhibitor, partial curve, poor fit] |  | 
25 | CC(C)(C)c1ccc(C(=O)Nc2ccccc2NC(=O)c2ccco2)cc1 | inconclusive: 39.8 µM [inhibitor, single point] |  | 
26 | O=C1CCCC2=C1C(c1ccc(O)c(O)c1)Nc1ccc3ncccc3c12 (stereo not given) | inconclusive: 28.2 µM [inhibitor, single point] |  | 
27 | Cc1ccccc1NS(=O)(=O)c1ccc2[nH]cc(C(=O)N(C)Cc3ccco3)c(=O)c2c1 | active: 31.6 µM |  | 
28 | C=CCNC(=O)c1cc2c(=O)c3ccccc3oc2nc1C | active: 28.2 µM |  | 
29 | CNC(=S)N(Cc1ccccc1)Cc1cccnc1 |  | inactive: 8.52% | 
30 | COCCN=c1scc(-c2cccs2)n1/N=C(\C)c1ccco1 | inconclusive: 39.8 µM [inhibitor, single point] |  | 
31 | CC1=C(C(=O)OCc2ccccc2)C(c2ccc(Cl)cc2Cl)NC(=O)N1CCCC(=O)O (stereo not given) |  | inactive: 3.6% | 
32 | O=C(Nc1cccc(F)c1)/C(=C\c1ccco1)NC(=O)c1cccs1 | inconclusive: 0.794 µM [inhibitor, partial curve, poor fit] |  | 
33 | NC(=O)COC(=O)c1cccc(S(=O)(=O)N2CCN(c3ccccc3)CC2)c1 |  | inactive: -2.69% | 
34 | Cc1ccc(CSC2=Nc3ccccc3C3=NC(CCC(=O)NCc4ccco4)C(=O)N23)cc1 (stereo not given) |  | inactive: -13.4% | 
35 | O=C1NN(c2ccc(Cl)cc2)C(=O)/C1=C\c1ccc(-c2cccc(C(=O)O)c2)o1 | inconclusive: 22.4 µM [inhibitor, partial curve, poor fit] |  | 
36 | c1ccc2c(c1)Cc1cc3ccccc3nc1-2 |  | inactive: -4.09% | 
37 | CNc1ccccc1C(C)(C)c1ccn[nH]1 |  |  | inactive
38 | CC(=O)/C(=C/Nc1ccc(Oc2ccccc2)cc1)c1ccccc1 | inconclusive: 31.6 µM [inhibitor, partial curve] |  | 
39 | O=C(CSCc1c(Cl)cccc1Cl)Nc1cccnc1 | inconclusive: 0.562 µM [inhibitor, partial curve, poor fit] |  | 
40 | Cc1cccc(Nc2nc3c(S(=O)(=O)c4ccccc4)nnn3c3ccccc23)c1 | inconclusive: 3.55 µM [inhibitor, partial curve, poor fit] |  | 
41 | CC1(C)NC(=O)N(CC(O)COc2ccccc2C(=O)Nc2ccccc2)C1=O (stereo not given) | inconclusive: 0.158 µM [inhibitor, full curve, poor fit] |  | 
42 | COC(=O)CSc1nc2nc(C)cc(C)n2n1 | inconclusive: 0.891 µM [inhibitor, single point] |  | 
43 | CCOC(=O)c1c(C(=O)OCC)c(C)n(N2C(=O)CSC2=S)c1C | inconclusive: 39.8 µM [inhibitor, single point] |  | 
44 | Cc1cc(/C=N/Nc2ccc([N+](=O)[O-])cn2)c(C)n1-c1cccc(C(=O)O)c1 | inconclusive: 39.8 µM [inhibitor, single point] |  | 
45 | O=C(Cn1cnc([N+](=O)[O-])n1)N/N=C/c1cc(Cl)ccc1O |  | inactive: -6.81% | 
